The source of these data is the supplement of paper PMC8104966.

Counter-ions that a name gives are not always drawn. The list shows a part of the results. Single values are uncertain here, since repeats match poorly.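 Fusion between ACE2-bearing and full-length-spike-bearing U2OS cells was measured by imaging as the percentage of nuclei with both cell types' fluorescent markers. An inhibitory hit is a non-toxic compound whose fusion z-score is below -3, more than three standard deviations beneath the plate's DMSO wells.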

The assay concerns U2OS ACE2 x SARS-CoV-2 spike co-culture. Briefly: cell-cell fusion (fraction fused) z-score vs plate DMSO control; higher = more fusion. To be noted: 30 µM; 5 h; toxicity class: non-toxic, passed QC.
With `C#C[C@]1(O)CC[C@H]2[C@@H]3CCC4=CC(=O)CC[C@@H]4[C@H]3C(=C)C[C@@]21CC` [Etonogestrel], the “cell-cell fusion (z-score)” value is inactive: 1.86. Regarding `CC[C@@H]1/C=C(\C)C[C@H](C)C[C@H](OC)[C@H]2O[C@@](O)(C(=O)C(=O)N3CCCC[C@H]3C(=O)O[C@H](/C(C)=C/[C@@H]3CC[C@H](Cl)[C@H](OC)C3)[C@H](C)[C@@H](O)CC1=O)[C@H](C)C[C@@H]2OC` [Pimecrolimus], the “cell-cell fusion (z-score)” value is active: -4.63. Turning to `COc1cc2c(cc1OC)C1C(=O)c3c(O)cc4c(c3OC1CO2)C=CC(C)(C)O4` (stereo not drawn) [alpha-TOXICAROL (dl)], the “cell-cell fusion (z-score)” value is inactive: 1.96. Take `CC(CO)NC(=O)C1C=C2c3cccc4[nH]cc(c34)C[C@H]2N(C)C1.O=C(O)/C=C\C(=O)O` (stereo partly drawn): the “cell-cell fusion (z-score)” value was inactive: -1.64. As to `COC(=O)C1=C(C)NC(C)=C(C(=O)OCCN(C)Cc2ccccc2)C1c1cccc([N+](=O)[O-])c1.Cl` (stereo not drawn) [Nicardipine hydrochloride], the “cell-cell fusion (z-score)” value is inactive: 3.1. As to `COC(=O)C1=C(C)NC(C)=C(C(=O)OCCN(C)Cc2ccccc2)C1c1cccc([N+](=O)[O-])c1.Cl` (stereo not drawn), the “cell-cell fusion (z-score)” value was inactive: 4.45.

On to `CNC(=O)c1ccc(-c2cnc3ncc(Cc4ccc5ncccc5c4)n3n2)cc1F`, for which the “cell-cell fusion (z-score)” value was inactive: 1.43. In the case of `O=C1c2ccccc2C(=O)C1c1ccccc1`, the “cell-cell fusion (z-score)” value was inactive: 1.9. For `CNC(C)C(O)c1ccccc1.Cl` (stereo not drawn), the “cell-cell fusion (z-score)” value is inactive: 0.279. Take `NC(=O)N/N=C/c1ccc([N+](=O)[O-])o1`: the “cell-cell fusion (z-score)” value is inactive: 1.9.

In the case of `CNC(=O)c1cc(Oc2ccc(NC(=O)Nc3ccc(Cl)c(C(F)(F)F)c3)cc2)ccn1.Cc1ccc(S(=O)(=O)O)cc1` [Sorafenib tosylate], the “cell-cell fusion (z-score)” value was inactive: 1.65. For the compound `CCN[C@@H]1C[C@H](N)[C@@H](O[C@H]2OC(CN)=CC[C@H]2N)[C@H](O)[C@H]1O[C@H]1OC[C@](C)(O)[C@H](NC)[C@H]1O.CCN[C@@H]1C[C@H](N)[C@@H](O[C@H]2OC(CN)=CC[C@H]2N)[C@H](O)[C@H]1O[C@H]1OC[C@](C)(O)[C@H](NC)[C@H]1O.O=S(=O)(O)O.O=S(=O)(O)O.O=S(=O)(O)O.O=S(=O)(O)O.O=S(=O)(O)O` [Netilmicin sulfate], the “cell-cell fusion (z-score)” value is inactive: 0.825. As to `COc1nc2ccc(Br)cc2cc1[C@@H](c1ccccc1)[C@@](O)(CCN(C)C)c1cccc2ccccc12` [Bedaquiline], the “cell-cell fusion (z-score)” value was inactive: 0.0102. Consider `CCOC(=O)[C@@H](N)Cc1ccc(O)c(O)c1` [L-Dopa ethyl ester], for which the “cell-cell fusion (z-score)” value was inactive: 2.73. As to `CC1=C(/C=C/C(C)=C/C=C/C(C)=C/C(=O)O)C(C)(C)CCC1` [Tretinoin], the “cell-cell fusion (z-score)” value is inactive: 1.64.

Consider `CC(C)(O)CNc1nc(Nc2ccnc(C(F)(F)F)c2)nc(-c2cccc(C(F)(F)F)n2)n1` [Enasidenib], for which the “cell-cell fusion (z-score)” value is inactive: -2.7. Turning to `CCC[C@H](N[C@@H](C)C(=O)N1[C@H](C(=O)O)C[C@@H]2CCCC[C@@H]21)C(=O)O`, the “cell-cell fusion (z-score)” value was inactive: 1.86. In the case of `CCOC(=O)[N-]c1c[n+](N2CCOCC2)no1`, the “cell-cell fusion (z-score)” value is inactive: 2.19. For the compound `CCOC(=O)[N-]c1c[n+](N2CCOCC2)no1` [Molsidomine], the “cell-cell fusion (z-score)” value is inactive: 3. Turning to `CO[C@@]1(NC(=O)CSCC#N)C(=O)N2C(C(=O)[O-])=C(CSc3nnnn3C)CSC21.[Na+]` (stereo partly drawn), the “cell-cell fusion (z-score)” value is inactive: 2.29.

Consider `C#Cc1cccc(Nc2ncnc3cc(OCCOC)c(OCCOC)cc23)c1` [Erlotinib HCl (OSI-744)], for which the “cell-cell fusion (z-score)” value is active: -4.26. For the compound `OC[C@@H]1OC2OC3[C@@H](O)C(O)C(OC4[C@H](O)C(O)C(OC5[C@H](O)C(O)C(OC6[C@@H](O)C(O)C(OC7[C@@H](O)C(O)C(OC8[C@H](O)C(O)C(OC1[C@H](O)C2O)O[C@H]8CO)O[C@@H]7CO)O[C@@H]6CO)O[C@H]5CO)O[C@H]4CO)O[C@@H]3CO` (stereo partly drawn) [beta-CYCLODEXTRIN], the “cell-cell fusion (z-score)” value is inactive: 2.68. Consider `CN(C)C[C@H]1CCn2cc(c3ccccc32)C2=C(C(=O)NC2=O)c2cn(c3ccccc23)CCO1.CS(=O)(=O)O`, for which the “cell-cell fusion (z-score)” value is inactive: -0.34. In the case of `Nc1ncnc2c1ncn2[C@@H]1O[C@H](CO)[C@@H](O)[C@@H]1O` [Vidarabine], the “cell-cell fusion (z-score)” value was inactive: 1.87.

Take `Nc1ccc(S(N)(=O)=O)cc1`: the “cell-cell fusion (z-score)” value was inactive: 2.68.

For the compound `Cn1c(Nc2ccc(C(F)(F)F)cc2)nc2cc(Oc3ccnc(-c4ncc(C(F)(F)F)[nH]4)c3)ccc21`, the “cell-cell fusion (z-score)” value is active: -16.1.

With `O=C(O)CCc1nc(-c2ccccc2)c(-c2ccccc2)o1` [Oxaprozin], the “cell-cell fusion (z-score)” value was inactive: 2.84. For `CC(=O)OCC(=O)[C@@]12N=C(C)O[C@@H]1C[C@H]1[C@@H]3CCC4=CC(=O)C=C[C@]4(C)[C@H]3[C@@H](O)C[C@@]12C` [Deflazacort], the “cell-cell fusion (z-score)” value was inactive: 0.914. Consider `CN(C)CCCNc1c2c(=O)n(C)c(=O)nc-2n(C)c2ccccc12.Cl.Cl`, for which the “cell-cell fusion (z-score)” value is inactive: 1.31. Turning to `CCN(C)C(=O)Oc1cccc([C@H](C)N(C)C)c1.O=C(O)[C@H](O)[C@@H](O)C(=O)O` [Rivastigmine tartrate], the “cell-cell fusion (z-score)” value was inactive: 2.49. Consider `NC(CSCSCC(N)C(=O)O)C(=O)O` (stereo not drawn), for which the “cell-cell fusion (z-score)” value is inactive: 2.19. The value for `Cc1ccc(O)cc1` was inactive: 0.0699; that for `Cn1cnc([N+](=O)[O-])c1Sc1ncnc2nc[nH]c12` [Azathioprine] was inactive: 2.04; that for `CNC(=O)[C@@H](NC(=O)[C@H](CC(C)C)[C@H](O)C(=O)NO)C(C)(C)C` [Marimastat] was inactive: 0.246. Consider `Cn1cc[nH]c1=S`, for which the “cell-cell fusion (z-score)” value was inactive: -0.133. The value for `CC1CNCCN1S(=O)(=O)c1cccc2cnccc12.Cl.Cl` (stereo not drawn) was inactive: 0.0784. Take `Cc1cc(-c2ccc(/N=N/c3ccc4c(S(=O)(=O)[O-])cc(S(=O)(=O)[O-])c(N)c4c3O)c(C)c2)ccc1/N=N/c1ccc2c(S(=O)(=O)[O-])cc(S(=O)(=O)[O-])c(N)c2c1O.[Na+].[Na+].[Na+].[Na+]`: the “cell-cell fusion (z-score)” value was inactive: 0.578. As to `CNCC[C@@H](Oc1ccccc1C)c1ccccc1.Cl` [Atomoxetine hydrochloride], the “cell-cell fusion (z-score)” value was inactive: 2.87. As to `CCNC(=O)[C@H]1O[C@@H](n2cnc3c(N)nc(NCCc4ccc(CCC(=O)O)cc4)nc32)C(O)[C@H]1O.Cl` (stereo partly drawn), the “cell-cell fusion (z-score)” value was inactive: 2.76. `COCCN1C2=C(C(=O)c3ccccc3C2=O)N(Cc2cnccn2)C1C.[Br-]` (stereo not drawn): the “cell-cell fusion (z-score)” value was inactive: -1.62. `CN1[C@@H](CC(=O)c2ccccc2)CCC[C@H]1C[C@H](O)c1ccccc1.Cl` [alpha-Lobeline hydrochloride]: the “cell-cell fusion (z-score)” value was inactive: 2.72. The figure for `N.N.O=C([O-])C1(C(=O)[O-])CCC1.[Pt+2]` [Carboplatin] is inactive: 2.19. The figure for `COC(=O)C(C)(N)Cc1ccc(O)cc1.Cl` (racemic) [alpha-Methyl-DL-tyrosine methyl ester hydrochloride] is inactive: 2.59; for `CCCC(=O)Nc1ccc(OCC(O)CNC(C)C)c(C(C)=O)c1.Cl` (stereo not drawn) it is inactive: 2.06. For the compound `CN(C)CCCN1c2ccccc2Sc2ccc(Cl)cc21.Cl` [Chlorpromazine hydrochloride], the “cell-cell fusion (z-score)” value was inactive: 1.38.

On to `CC(=O)Oc1c2c(c(CC=C(C)C)c3c1C(=O)C1=C[C@@H]4CC5C(C)(C)OC(C/C=C(\C)C(=O)O)(C4=O)[C@@]15O3)OC(C)(CCC=C(C)C)C=C2` (stereo partly drawn), for which the “cell-cell fusion (z-score)” value was inactive: 1.38. Consider `NC(=S)c1ccc[n+]([C@@H]2O[C@@H](COP(=O)([O-])OP(=O)(O)OC[C@H]3O[C@@H](n4cnc5c(N)ncnc54)C(OP(=O)([O-])O)[C@H]3O)C(O)C2O)c1.[Na+]` (stereo partly drawn) [Thio-NADP sodium], for which the “cell-cell fusion (z-score)” value was inactive: 2.14. Regarding `COc1ccc(O)cc1` [4-Methoxyphenol], the “cell-cell fusion (z-score)” value was inactive: 2.33. Consider `COc1cccc2cc(-c3nc([C@H]4CC[C@H](C(=O)O)CC4)n4ncnc(N)c34)[nH]c12`, for which the “cell-cell fusion (z-score)” value was inactive: 0.831. Turning to `CC(=O)O[C@@H]1CC2C(C)(C)C(=O)CC[C@]2(C)C2CC[C@@]3(C)[C@H](c4ccoc4)OC(=O)C4OC43[C@@]21C` (stereo partly drawn), the “cell-cell fusion (z-score)” value was inactive: 1.95. In the case of `NCCc1cnc[nH]1` [Histamine], the “cell-cell fusion (z-score)” value is inactive: 1.23. With `CCCCCCCCCCCCCCCCCCCCCCO`, the “cell-cell fusion (z-score)” value is inactive: 2.22. The figure for `CCCCCCCCCCCCCCCCCCCCCCO` [n-Docosanol] is inactive: 2.45; for `CN1CCC(C(=O)c2cccc(NC(=O)c3c(F)cc(F)cc3F)n2)CC1` [Lasmiditan] it is inactive: 3.2.

For `C[C@@H]1CC2C3CCC4=CC(=O)C=C[C@]4(C)[C@@]3(F)[C@@H](O)C[C@]2(C)[C@@]1(O)C(=O)CO` (stereo partly drawn), the “cell-cell fusion (z-score)” value is inactive: 1.18. Consider `CC(C)NC[C@H](O)COc1ccc(CC(N)=O)cc1` [S(-)-Atenolol], for which the “cell-cell fusion (z-score)” value was inactive: 1.99. For the compound `CN(c1ncccc1CNc1nc(Nc2ccc3c(c2)CC(=O)N3)ncc1C(F)(F)F)S(C)(=O)=O.O=S(=O)(O)c1ccccc1`, the “cell-cell fusion (z-score)” value was active: -3.53.

Take `O=S(=O)(O)NC1CCCCC1`: the “cell-cell fusion (z-score)” value was inactive: 0.812. The value for `NC(=O)CN1CC(O)CC1=O` (stereo not drawn) [Oxiracetam] was inactive: 2.26.

As to `C[C@]12CC[C@@H]3c4ccc(O)cc4CC[C@H]3[C@@H]1CCC2=O` [Estrone], the “cell-cell fusion (z-score)” value was inactive: 2.95. As to `COc1ccc(-n2c(SCc3nc(-c4ccc(C)cc4)no3)nnc2-c2ccncc2)cc1`, the “cell-cell fusion (z-score)” value is inactive: 0.0715. The value for `[N-]=[N+]=Nc1ccc(C(=O)CSC[C@H](NC(=O)CC[C@H](N)C(=O)O)C(=O)NCC(=O)O)cc1` [S-(p-Azidophenacyl)glutathione] was inactive: 1.44. Regarding `Cl.Cl.O=C1c2c(O)ccc(O)c2C(=O)c2c(NCCNCCO)ccc(NCCNCCO)c21` [Mitoxantrone Hydrochloride], the “cell-cell fusion (z-score)” value was inactive: 2.02.
